Laboratory results taken from the supplement of paper PMC12819154, “High-throughput peptide-centric local stability assay extends protein–ligand identification to membrane proteins, tissues and bacteria” (Nature Structural & Molecular Biology, 2025).
This is one part of the list. Most entries show no effect beyond the scatter of the controls.

Sequences of proteins named here, by UniProt entry; tags and fusion partners are left off. A change or cut given only in a name is not applied to a line headed by its entry.
UniProt P35802: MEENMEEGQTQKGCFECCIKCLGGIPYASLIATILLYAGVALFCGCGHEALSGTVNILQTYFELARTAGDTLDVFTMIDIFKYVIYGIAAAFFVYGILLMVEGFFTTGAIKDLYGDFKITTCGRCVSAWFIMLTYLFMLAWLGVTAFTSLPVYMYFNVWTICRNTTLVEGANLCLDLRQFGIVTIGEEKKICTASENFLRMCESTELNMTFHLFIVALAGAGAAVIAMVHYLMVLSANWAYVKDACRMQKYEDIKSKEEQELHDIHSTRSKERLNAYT
UniProt P50636: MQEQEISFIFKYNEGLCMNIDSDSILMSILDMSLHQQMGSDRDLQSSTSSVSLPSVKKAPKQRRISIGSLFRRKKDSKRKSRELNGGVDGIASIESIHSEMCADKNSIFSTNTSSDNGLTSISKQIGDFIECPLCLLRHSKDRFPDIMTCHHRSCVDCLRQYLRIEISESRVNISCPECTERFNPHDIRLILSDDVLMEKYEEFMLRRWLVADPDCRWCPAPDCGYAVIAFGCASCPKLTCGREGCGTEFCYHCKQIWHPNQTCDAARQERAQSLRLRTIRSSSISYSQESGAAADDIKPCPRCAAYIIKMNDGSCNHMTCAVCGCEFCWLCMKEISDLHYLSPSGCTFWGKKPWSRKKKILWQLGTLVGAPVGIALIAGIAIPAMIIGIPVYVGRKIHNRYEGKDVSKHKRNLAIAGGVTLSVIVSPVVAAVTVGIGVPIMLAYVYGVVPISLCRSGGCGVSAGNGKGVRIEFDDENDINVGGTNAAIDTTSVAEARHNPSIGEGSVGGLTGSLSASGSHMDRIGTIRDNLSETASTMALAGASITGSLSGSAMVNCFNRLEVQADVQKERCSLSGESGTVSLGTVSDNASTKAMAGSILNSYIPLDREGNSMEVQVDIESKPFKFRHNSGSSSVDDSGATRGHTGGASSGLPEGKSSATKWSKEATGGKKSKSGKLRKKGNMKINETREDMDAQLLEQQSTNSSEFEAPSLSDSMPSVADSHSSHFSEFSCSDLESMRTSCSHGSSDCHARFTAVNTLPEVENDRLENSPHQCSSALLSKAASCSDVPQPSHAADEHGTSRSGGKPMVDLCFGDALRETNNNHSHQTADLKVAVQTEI
UniProt P35951: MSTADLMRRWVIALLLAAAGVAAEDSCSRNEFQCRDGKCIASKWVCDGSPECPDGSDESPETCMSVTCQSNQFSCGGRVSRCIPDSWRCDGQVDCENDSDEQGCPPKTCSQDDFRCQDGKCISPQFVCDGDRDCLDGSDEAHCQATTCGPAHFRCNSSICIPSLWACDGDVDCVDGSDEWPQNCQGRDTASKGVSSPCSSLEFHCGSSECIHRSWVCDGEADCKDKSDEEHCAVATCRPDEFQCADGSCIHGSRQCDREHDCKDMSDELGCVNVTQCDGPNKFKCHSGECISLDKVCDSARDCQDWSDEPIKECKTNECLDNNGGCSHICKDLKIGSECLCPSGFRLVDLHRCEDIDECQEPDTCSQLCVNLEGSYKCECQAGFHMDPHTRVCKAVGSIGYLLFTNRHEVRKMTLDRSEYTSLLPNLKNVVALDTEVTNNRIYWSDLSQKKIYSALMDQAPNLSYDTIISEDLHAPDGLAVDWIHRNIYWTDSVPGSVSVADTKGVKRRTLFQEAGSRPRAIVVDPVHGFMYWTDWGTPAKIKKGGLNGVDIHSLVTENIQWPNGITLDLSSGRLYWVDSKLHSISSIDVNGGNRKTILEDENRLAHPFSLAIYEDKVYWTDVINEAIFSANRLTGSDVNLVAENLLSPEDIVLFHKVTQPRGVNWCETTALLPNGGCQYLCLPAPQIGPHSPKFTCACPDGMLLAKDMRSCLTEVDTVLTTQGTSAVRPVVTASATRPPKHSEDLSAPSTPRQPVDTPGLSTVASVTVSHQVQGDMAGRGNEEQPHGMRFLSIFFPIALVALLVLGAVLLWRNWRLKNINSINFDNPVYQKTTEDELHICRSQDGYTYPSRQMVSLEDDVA
UniProt P49919: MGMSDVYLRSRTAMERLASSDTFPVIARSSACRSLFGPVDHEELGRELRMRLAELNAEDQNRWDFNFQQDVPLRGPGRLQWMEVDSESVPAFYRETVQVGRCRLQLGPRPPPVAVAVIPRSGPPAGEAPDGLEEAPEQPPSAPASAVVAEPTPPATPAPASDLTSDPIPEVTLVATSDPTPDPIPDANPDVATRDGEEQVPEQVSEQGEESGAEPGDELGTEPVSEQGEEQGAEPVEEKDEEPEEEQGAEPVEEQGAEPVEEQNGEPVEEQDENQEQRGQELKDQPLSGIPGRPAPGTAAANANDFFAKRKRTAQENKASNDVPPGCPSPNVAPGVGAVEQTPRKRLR
UniProt P46978: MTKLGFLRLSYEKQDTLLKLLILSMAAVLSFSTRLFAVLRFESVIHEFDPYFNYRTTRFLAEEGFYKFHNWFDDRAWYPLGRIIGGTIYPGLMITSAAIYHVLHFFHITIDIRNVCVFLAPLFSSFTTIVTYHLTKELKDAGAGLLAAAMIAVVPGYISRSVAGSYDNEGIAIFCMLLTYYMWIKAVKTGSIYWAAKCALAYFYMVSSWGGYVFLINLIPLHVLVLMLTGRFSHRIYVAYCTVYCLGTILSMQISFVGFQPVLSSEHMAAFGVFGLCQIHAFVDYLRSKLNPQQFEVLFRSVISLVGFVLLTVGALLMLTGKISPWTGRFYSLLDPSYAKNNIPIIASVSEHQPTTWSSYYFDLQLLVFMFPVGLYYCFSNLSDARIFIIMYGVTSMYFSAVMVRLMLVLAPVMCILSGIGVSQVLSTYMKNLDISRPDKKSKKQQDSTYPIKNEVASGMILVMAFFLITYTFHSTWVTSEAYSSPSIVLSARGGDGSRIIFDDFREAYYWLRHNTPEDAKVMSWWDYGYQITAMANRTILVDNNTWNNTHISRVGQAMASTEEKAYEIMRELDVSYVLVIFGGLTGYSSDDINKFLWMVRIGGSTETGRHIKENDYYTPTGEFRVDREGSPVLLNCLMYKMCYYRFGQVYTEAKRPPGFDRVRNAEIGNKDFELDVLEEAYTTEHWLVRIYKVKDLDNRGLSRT
UniProt P48428: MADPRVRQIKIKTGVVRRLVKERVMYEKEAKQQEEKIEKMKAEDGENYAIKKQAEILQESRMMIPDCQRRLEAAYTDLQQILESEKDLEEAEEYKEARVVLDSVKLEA
UniProt P51863, whole entry: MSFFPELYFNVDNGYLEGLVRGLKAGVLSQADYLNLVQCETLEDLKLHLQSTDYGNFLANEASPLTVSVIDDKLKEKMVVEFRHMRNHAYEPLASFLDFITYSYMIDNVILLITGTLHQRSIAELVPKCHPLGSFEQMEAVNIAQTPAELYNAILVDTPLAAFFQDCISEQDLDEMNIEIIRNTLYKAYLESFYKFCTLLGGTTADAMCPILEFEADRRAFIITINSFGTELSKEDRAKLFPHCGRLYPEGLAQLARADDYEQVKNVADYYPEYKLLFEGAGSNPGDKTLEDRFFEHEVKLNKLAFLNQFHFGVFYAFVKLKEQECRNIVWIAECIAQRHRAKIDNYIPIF

Compound: CN[C@@H]1C[C@H]2O[C@@](C)([C@@H]1OC)n1c3ccccc3c3c4c(c5c6ccccc6n2c5c31)C(=O)NC4 [staurosporine]
Experiment: log2 fold change of tryptic peptide abundance, ligand vs vehicle (limited proteolysis) (log2 ratio); higher = more trypsin-susceptible (destabilized)
Conditions: ligand concentration: 20 uM; sample: mouse liver crude lysate; replicate design: treated separately

Row | Target | log2 fold change
1 | UniProt P35802 (peptide sequence: SKEEQELHDIHSTR, peptide start residue: 256) | 0.111
2 | UniProt P50636 (peptide sequence: GHTGGASSGLPEGK, peptide start residue: 644) | 0.0147
3 | UniProt P35951 (peptide sequence: SQDGYTYPSR, peptide start residue: 843) | 0.0654
4 | UniProt P53690 (peptide sequence: GIQQLYGSK, peptide start residue: 278) | -0.154
5 | UniProt P49919 (peptide sequence: LQLGPRPPPVAVAVIPR, peptide start residue: 104) | 0.527
6 | UniProt P46978 (peptide sequence: FGQVYTEAK, peptide start residue: 647) | -0.12
7 | UniProt P48428 (peptide sequence: VMYEKEAK, peptide start residue: 24) | -0.236
8 | UniProt P51863 (peptide sequence: AYLESFYK, peptide start residue: 188) | -0.547
